The values that follow come from the supplement of paper PMC4683952.

Structures can show the parent of a compound that is named as a salt. About 50 (4%) of roughly 1,200 compounds showed activity. Rule as the data show it: all actives reach 1.3 or more but so do some inactives. The list shows a part of the results.

For the experiment, the system named is Lgr5 (MarsCy1-Lgr5-EGFP, U2OS). As to the kind of experiment: cell-surface Lgr5 expression (SCi1 fluorescence, background-subtracted) relative to WT DMSO (fold of DMSO control); higher = more Lgr5 at the plasma membrane, active = hit call of the paper. Particulars: U2OS MarsCy1-Lgr5-EGFP stable; treatment time: overnight; 16 µM; library: Johns Hopkins Clinical Compound Library.
For the compound `CN1C(=O)CC[C@H]1c1cccnc1` [Cotinine], the “cell-surface Lgr5 expression” value is inactive: 0.893. The figure for `CC[C@@H]1C(=O)OC[C@@H]1Cc1cncn1C` [Pilocarpine hydrochloride] is inactive: 0.698; for `CCN1C(=CC=Cc2ccc3ccccc3[n+]2CC)C=Cc2ccccc21` [Quinaldine blue (Pinacyanol chloride)] it is inactive: 1.53; for `CC(C)(C)CC(C)(C)c1cc(Cc2cc(C(C)(C)CC(C)(C)C)cc(-n3nc4ccccc4n3)c2O)c(O)c(-n2nc3ccccc3n2)c1` [Bisoctrizole (2,2'-Methylenebis)] it is inactive: 1. The same measure for `O=C(CCNNC(=O)c1ccncc1)NCc1ccccc1` [Nialamide]: inactive: 0.469; for `COc1cccc2c1C(=O)c1c(O)c3c(c(O)c1C2=O)C[C@@](O)(C(=O)CO)C[C@@H]3O[C@H]1C[C@H](N)[C@@H](O)[C@H](C)O1` [Epirubicin]: inactive: 1.31.

Turning to `C/C=C/c1ccc(OC)cc1` [trans-Anethole], the “cell-surface Lgr5 expression” value is inactive: 0.977. The same measure for `O[C@H]1[C@H](O)[C@@H](O)[C@H](O)[C@@H](O)[C@H]1O` [Inositol]: inactive: 0.825. Turning to `O[C@H]1[C@H](O)[C@@H](O)[C@H](O)[C@@H](O)[C@H]1O` [myo-Inositol], the “cell-surface Lgr5 expression” value was inactive: 0.994. In the case of `O=C([O-])[O-].[Zn+2]` [Zinc carbonate], the “cell-surface Lgr5 expression” value was inactive: 1.19. The figure for `CCCCCCCCOc1ccc(C(=O)c2ccccc2)c(O)c1` is inactive: 1.12; for `Cc1ccc2ccccc2n1` [Quinaldine] it is inactive: 1.33; for `CC1=C(/C=C/C(C)=C/C=C/C(C)=C\CO)C(C)(C)CCC1` [Neovitamin A (13-cis-retinal)] it is inactive: 1.05. The figure for `Cc1ncc([N+](=O)[O-])n1CC(C)O` (stereo not drawn) [Secnidazole] is inactive: 1.07. The same measure for `O=C(O)c1ccccc1OP(=O)(O)O` [Fosfosal (O-Carboxyphenyl phosphate)]: inactive: 1.13. For the compound `COc1ccc2cc([C@H](C)C(=O)O)ccc2c1` [Naproxen sodium], the “cell-surface Lgr5 expression” value is inactive: 1.03. Take `COc1ccc2cc([C@H](C)C(=O)O)ccc2c1` [Naproxen (s-6-methoxy methyl 2-naphthalene acetic acid)]: the “cell-surface Lgr5 expression” value was inactive: 0.783.

On to `O=C([O-])c1ccccc1.[Li+]` [Lithium benzoate], for which the “cell-surface Lgr5 expression” value was inactive: 0.549. The figure for `CC1(C)S[C@@H]2[C@H](NC(=O)[C@H](N)c3ccccc3)C(=O)N2[C@H]1C(=O)O` [Ampicillin Sodium Salt] is inactive: 0.927. The figure for `CC1(C)S[C@@H]2[C@H](NC(=O)[C@H](N)c3ccccc3)C(=O)N2[C@H]1C(=O)O` [Ampicillin] is inactive: 0.908; for `C=C[C@H]1CN2CC[C@H]1C[C@H]2[C@H](O)c1ccnc2ccc(OC)cc12` [Quinine hydrobromide] it is inactive: 1.42. The same measure for `C=C[C@H]1CN2CC[C@H]1C[C@H]2[C@H](O)c1ccnc2ccc(OC)cc12` [Quinine]: inactive: 1.48; for `C=C[C@H]1CN2CC[C@H]1C[C@H]2[C@H](O)c1ccnc2ccc(OC)cc12` [Quinine bisulfate]: inactive: 1.26; for `O=C(O)c1cc(=O)[nH]c(=O)[nH]1` [Orotic acid]: inactive: 1.02. In the case of `CCC(NC(C)C)C(O)c1ccc(O)c2[nH]c(=O)ccc12` (stereo not drawn) [Procaterol], the “cell-surface Lgr5 expression” value was inactive: 1.25. The same measure for `C[C@]12CCC(=O)C=C1CC[C@@H]1[C@@H]2[C@@H](O)C[C@]2(C=O)[C@@H](C(=O)CO)CC[C@@H]12` [Aldosterone]: active: 1.55; for `CCOC(=O)c1cnc2c(cnn2CC)c1NN=C(C)C` [Etazolate Hydrochloride]: inactive: 1.35; for `CCOC(=O)c1cnc2c(cnn2CC)c1NN=C(C)C` [Etazolate hydrochloride, solid]: inactive: 1.32. As to `CCOc1ccc2nc(S(N)(=O)=O)sc2c1` [Ethoxzolamide (6-Ethoxy-2-benzothiazolesulfonamide)], the “cell-surface Lgr5 expression” value is inactive: 1.15. The same measure for `O=c1oc2cc(O)ccc2s1` [Tioxolone (6-hydroxy-1,3-benzoxathiol-2-one)]: inactive: 1.13.

On to `CC1/C=C/C=C/C=C/C=C/C=C/C=C/C=C/C(OC2O[C@H](C)[C@@H](O)[C@H](N)[C@@H]2O)CC(O)C(C(=O)O)C(O)CC(=O)CC(O)CC(O)CC(O)CC(=O)CCCC(=O)CC(=O)OC1C(C)CC(C)C(O)CC(=O)c1ccc(N)cc1` (stereo partly drawn) [Candicidin], for which the “cell-surface Lgr5 expression” value was inactive: 0.694. The same measure for `CN/C(=N\CCSCc1nc[nH]c1C)NC#N` [Cimetidine]: inactive: 1.11; for `[Li+].[OH-]` [Lithium Hydroxide]: inactive: 1.16; for `O=C(O)c1cc(/N=N/c2ccc(S(=O)(=O)Nc3ccccn3)cc2)ccc1O` [Sulfasalazine]: inactive: 0.845. The figure for `CN1CCCN=C1/C=C/c1cccc(O)c1` [Oxantel] is inactive: 0.891.

With `N#CCC(=O)NN` [Cyacetacide (cyanoacetohydrazide)], the “cell-surface Lgr5 expression” value is inactive: 1.21. The same measure for `C[C@@H](O[C@H]1OCCN(Cc2n[nH]c(=O)[nH]2)[C@H]1c1ccc(F)cc1)c1cc(C(F)(F)F)cc(C(F)(F)F)c1` [Aprepitant]: inactive: 1.01; for `CC1(C)S[C@@H]2[C@H](NC(=O)C3(N)CCCCC3)C(=O)N2[C@H]1C(=O)O` [Cyclacillin]: inactive: 0.994; for `CC=CC1=C(C(=O)O)N2C(=O)[C@@H](NC(=O)[C@H](N)c3ccc(O)cc3)[C@H]2SC1` [Cefprozil]: inactive: 0.821. The figure for `NC(=O)CC[C@H](N)C(=O)O` [L-Glutamine] is inactive: 1.18; for `CC(C)OC(=O)C(C)(C)Oc1ccc(C(=O)c2ccc(Cl)cc2)cc1` [Fenofibrate] it is inactive: 1.14. As to `C[C@H]1c2cccc(O)c2C(=O)C2=C(O)[C@]3(O)C(=O)C(C(N)=O)=C(O)[C@@H](N(C)C)[C@@H]3[C@@H](O)[C@@H]21` [Doxycycline], the “cell-surface Lgr5 expression” value is inactive: 0.511. With `C[C@H]1c2cccc(O)c2C(=O)C2=C(O)[C@]3(O)C(=O)C(C(N)=O)=C(O)[C@@H](N(C)C)[C@@H]3[C@@H](O)[C@@H]21` [Doxycycline hyclate], the “cell-surface Lgr5 expression” value was inactive: 0.543.
